No constants are given. Whether binding was seen depends on the method and setting. In cells and extracts the contact can be indirect. Here binding means that the protein was enriched with, or labelled near, the bait; the list need not be complete. Tags and fused reporters may be left off the sequences shown.
Legend:
[1] = molecular target: T1, expanded human PABPN1, tract of 17 alanine residues, His-tagged, biotinylated (human) (UniProt Q86U42); experiment: affinity purification with mass spectrometry; biotinylated His-PABPN1 (2 µg) on streptavidin-agarose beads, incubated with RNase A-treated extracts of undifferentiated (myoblasts) and differentiated (myotubes) C2 cells, 4 h at 4°C, 20 mM Tris pH 8.0, 200 mM KCl, 10% glycerol; bands excised from SDS-PAGE, MALDI-MS; only the target purified
T1 sequence (chain, biotin (EZ-Link PEO-Maleimide Activated Biotin)): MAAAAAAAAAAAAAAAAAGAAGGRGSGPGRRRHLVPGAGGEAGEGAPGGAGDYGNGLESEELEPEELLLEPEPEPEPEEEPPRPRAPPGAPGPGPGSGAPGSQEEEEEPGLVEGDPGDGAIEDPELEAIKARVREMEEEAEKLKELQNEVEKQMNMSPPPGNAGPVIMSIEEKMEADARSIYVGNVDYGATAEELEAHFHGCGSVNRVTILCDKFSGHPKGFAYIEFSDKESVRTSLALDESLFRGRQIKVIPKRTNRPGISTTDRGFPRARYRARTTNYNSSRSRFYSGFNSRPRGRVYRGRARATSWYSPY

Amino acid sequences for entries named in this document (tags omitted).
UniProt Q9EPL8: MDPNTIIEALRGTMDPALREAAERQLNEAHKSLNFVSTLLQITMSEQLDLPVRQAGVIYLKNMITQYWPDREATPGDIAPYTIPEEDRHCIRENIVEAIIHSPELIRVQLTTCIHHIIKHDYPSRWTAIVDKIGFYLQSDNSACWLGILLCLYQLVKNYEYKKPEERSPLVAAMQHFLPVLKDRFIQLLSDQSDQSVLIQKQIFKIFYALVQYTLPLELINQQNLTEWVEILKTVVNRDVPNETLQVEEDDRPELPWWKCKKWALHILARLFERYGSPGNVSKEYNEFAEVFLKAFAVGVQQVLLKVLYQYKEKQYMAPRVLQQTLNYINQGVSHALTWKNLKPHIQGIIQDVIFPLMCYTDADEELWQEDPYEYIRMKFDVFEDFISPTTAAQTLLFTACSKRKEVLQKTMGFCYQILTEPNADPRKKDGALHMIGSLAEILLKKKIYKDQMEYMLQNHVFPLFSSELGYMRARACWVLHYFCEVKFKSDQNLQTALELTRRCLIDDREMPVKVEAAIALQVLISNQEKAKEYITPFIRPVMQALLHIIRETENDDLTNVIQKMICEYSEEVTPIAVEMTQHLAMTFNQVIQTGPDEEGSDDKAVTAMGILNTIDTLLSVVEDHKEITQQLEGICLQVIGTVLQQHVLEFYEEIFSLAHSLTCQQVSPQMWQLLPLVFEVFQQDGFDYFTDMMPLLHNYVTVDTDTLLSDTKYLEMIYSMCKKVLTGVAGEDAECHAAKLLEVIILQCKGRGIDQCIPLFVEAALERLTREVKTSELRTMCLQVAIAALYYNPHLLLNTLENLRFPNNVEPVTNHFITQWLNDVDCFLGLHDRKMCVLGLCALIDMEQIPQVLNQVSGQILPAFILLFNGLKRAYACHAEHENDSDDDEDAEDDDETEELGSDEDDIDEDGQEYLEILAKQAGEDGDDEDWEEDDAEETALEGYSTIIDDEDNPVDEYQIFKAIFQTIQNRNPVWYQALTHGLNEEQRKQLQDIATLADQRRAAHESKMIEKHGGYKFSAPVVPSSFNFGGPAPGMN
UniProt Q8R050: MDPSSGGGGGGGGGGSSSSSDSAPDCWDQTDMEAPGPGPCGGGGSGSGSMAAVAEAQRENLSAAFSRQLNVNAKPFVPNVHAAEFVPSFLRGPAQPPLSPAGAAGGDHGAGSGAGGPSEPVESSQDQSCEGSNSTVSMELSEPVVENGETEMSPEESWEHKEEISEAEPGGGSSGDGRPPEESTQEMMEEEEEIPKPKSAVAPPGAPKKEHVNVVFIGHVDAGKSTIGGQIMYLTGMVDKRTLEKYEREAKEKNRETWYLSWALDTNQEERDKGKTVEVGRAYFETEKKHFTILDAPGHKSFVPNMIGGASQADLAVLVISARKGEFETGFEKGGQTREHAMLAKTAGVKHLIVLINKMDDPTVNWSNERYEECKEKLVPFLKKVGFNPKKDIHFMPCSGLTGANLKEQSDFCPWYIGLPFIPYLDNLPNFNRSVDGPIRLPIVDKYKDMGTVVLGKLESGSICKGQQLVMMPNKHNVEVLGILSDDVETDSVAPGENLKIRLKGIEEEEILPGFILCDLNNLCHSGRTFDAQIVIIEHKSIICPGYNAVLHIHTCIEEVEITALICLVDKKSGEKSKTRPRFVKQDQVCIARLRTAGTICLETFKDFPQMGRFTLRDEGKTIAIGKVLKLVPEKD
UniProt Q61696: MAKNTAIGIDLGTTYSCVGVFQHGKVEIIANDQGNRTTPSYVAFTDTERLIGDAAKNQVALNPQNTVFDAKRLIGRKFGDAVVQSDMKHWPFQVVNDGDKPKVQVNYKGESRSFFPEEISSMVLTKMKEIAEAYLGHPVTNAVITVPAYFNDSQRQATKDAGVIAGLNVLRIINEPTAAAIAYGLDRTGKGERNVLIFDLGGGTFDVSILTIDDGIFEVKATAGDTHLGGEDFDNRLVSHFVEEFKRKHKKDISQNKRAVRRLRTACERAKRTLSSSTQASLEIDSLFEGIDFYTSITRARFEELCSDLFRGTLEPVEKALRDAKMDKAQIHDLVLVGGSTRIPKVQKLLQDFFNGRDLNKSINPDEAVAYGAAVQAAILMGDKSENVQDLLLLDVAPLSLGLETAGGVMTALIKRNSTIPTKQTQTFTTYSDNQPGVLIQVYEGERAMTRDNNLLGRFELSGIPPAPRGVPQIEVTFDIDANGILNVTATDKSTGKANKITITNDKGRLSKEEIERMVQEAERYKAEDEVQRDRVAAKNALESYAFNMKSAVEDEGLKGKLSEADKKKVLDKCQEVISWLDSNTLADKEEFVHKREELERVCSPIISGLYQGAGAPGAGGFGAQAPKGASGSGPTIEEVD
UniProt P45481: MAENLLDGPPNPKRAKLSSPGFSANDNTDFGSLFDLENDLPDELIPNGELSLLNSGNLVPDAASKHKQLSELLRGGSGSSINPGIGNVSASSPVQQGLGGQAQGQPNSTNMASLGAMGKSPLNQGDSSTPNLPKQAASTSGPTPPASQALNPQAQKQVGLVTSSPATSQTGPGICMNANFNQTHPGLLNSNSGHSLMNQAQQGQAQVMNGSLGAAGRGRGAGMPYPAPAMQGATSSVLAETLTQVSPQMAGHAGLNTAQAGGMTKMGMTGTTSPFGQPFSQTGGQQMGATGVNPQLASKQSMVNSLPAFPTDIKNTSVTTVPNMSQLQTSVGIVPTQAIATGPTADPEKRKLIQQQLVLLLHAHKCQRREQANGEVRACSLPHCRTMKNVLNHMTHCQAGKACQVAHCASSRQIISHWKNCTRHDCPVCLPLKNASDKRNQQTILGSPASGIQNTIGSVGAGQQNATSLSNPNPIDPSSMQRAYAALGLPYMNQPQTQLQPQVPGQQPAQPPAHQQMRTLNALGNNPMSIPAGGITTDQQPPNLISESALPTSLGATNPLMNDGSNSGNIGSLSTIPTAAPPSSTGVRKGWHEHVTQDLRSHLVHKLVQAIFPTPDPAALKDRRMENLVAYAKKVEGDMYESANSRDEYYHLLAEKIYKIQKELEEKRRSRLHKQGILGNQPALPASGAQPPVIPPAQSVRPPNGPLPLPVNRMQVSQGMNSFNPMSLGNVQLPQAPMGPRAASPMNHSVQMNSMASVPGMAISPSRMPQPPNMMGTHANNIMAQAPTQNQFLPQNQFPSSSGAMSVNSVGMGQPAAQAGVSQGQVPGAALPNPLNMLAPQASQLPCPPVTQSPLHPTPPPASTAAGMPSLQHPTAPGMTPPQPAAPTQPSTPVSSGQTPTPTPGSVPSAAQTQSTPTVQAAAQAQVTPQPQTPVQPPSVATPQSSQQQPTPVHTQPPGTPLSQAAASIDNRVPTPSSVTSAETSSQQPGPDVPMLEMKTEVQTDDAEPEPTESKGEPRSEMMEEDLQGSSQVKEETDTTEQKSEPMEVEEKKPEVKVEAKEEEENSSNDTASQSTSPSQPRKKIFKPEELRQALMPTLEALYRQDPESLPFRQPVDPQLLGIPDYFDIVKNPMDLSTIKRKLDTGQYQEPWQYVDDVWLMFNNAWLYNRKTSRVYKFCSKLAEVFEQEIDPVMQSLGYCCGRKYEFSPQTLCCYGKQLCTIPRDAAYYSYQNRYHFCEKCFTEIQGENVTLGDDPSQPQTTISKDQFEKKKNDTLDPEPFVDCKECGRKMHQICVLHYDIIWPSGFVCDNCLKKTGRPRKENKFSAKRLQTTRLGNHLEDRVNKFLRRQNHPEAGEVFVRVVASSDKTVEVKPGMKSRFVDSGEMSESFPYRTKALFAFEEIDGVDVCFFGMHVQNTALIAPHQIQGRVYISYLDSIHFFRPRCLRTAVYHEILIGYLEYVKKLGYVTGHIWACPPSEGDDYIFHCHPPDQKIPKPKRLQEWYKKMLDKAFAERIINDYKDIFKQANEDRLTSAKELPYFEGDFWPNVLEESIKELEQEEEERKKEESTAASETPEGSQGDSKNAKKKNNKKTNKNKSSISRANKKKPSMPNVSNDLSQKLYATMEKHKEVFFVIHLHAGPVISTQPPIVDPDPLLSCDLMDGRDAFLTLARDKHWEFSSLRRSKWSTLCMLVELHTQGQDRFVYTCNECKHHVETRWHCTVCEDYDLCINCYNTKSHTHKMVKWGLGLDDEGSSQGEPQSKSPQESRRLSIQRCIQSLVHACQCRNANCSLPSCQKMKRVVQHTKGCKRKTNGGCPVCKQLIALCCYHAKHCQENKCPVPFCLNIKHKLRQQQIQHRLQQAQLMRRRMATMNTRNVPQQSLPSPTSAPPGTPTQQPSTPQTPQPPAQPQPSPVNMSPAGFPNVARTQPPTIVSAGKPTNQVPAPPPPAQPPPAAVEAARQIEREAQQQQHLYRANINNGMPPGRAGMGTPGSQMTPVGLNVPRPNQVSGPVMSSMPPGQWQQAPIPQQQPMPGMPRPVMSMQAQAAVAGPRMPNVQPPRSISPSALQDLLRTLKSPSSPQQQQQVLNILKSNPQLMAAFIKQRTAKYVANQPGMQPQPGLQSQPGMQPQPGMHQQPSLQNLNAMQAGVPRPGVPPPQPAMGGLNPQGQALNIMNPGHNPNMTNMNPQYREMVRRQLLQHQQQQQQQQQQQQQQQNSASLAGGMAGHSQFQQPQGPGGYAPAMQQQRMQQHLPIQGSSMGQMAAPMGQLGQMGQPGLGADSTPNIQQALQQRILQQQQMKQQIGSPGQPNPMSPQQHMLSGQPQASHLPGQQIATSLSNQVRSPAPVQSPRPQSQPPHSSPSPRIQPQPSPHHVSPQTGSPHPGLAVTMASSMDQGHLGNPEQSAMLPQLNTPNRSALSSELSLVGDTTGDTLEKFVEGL
UniProt Q922H1: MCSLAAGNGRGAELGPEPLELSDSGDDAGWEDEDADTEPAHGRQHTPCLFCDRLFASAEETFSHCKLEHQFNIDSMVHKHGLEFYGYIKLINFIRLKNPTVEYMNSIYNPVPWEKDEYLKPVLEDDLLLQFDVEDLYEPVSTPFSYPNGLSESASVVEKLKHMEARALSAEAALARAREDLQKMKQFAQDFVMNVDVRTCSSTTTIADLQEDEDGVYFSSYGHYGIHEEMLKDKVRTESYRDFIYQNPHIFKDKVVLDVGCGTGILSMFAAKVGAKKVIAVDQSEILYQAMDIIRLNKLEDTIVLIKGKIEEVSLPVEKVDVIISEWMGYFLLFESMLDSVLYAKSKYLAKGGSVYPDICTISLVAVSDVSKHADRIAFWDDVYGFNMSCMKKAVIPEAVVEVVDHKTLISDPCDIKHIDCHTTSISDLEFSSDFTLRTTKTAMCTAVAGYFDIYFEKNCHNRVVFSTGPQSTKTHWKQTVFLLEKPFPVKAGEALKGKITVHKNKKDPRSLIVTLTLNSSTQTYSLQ
UniProt Q7SIG6: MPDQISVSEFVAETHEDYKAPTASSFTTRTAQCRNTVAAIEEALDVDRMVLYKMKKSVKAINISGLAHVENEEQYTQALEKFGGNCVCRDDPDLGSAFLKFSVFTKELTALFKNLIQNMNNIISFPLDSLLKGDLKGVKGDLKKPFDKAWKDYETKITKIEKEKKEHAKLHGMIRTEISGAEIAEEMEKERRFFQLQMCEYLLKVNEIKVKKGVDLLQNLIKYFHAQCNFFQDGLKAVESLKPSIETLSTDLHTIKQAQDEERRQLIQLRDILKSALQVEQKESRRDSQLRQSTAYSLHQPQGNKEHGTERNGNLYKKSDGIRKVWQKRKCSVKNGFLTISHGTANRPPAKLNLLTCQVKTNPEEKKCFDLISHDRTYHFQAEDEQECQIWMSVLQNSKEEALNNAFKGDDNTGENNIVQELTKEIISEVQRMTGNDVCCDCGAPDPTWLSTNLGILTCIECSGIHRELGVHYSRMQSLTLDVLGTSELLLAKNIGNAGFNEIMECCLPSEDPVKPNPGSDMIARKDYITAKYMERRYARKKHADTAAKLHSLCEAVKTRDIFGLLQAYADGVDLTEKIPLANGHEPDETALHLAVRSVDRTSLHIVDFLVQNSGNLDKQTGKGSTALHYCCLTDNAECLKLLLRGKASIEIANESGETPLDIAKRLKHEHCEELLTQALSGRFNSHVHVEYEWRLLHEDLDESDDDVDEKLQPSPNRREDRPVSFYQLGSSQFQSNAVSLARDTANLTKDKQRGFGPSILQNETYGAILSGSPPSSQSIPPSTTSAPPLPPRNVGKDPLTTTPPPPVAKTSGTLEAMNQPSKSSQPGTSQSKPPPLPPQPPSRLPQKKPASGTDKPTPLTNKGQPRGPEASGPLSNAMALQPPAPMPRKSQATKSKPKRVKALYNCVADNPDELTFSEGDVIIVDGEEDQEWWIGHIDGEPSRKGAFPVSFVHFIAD

[2] = molecular target: T2, normal human PABPN1 (poly(A)-binding protein nuclear 1), homopolymer of 10 alanine residues, His-tagged, biotinylated (human) (UniProt Q86U42); experiment: as above
T2 sequence (chain, biotin (EZ-Link PEO-Maleimide Activated Biotin)): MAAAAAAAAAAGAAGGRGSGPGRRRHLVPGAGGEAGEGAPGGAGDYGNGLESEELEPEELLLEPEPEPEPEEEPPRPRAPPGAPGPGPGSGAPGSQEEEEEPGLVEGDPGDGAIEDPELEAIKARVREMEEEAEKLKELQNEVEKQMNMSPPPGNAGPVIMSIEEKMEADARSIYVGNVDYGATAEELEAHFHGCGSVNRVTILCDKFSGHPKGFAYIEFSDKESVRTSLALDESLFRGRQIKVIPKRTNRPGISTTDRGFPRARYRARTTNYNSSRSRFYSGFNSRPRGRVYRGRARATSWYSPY

Substance | binding [1] | binding [2]
IMPORTIN 7 (from UniProt Q9EPL8 1-1038) | binds | binds
HSP70 1L (from UniProt P16627 1-641) | binds | binds
Gspt1 (from UniProt Q8R050 1-636) | binds | binds
N-RAP (from UniProt Q80XB4 1-1728) | binds | binds
hnRNP U (from UniProt Q8VEK3 1-800) | binds | binds

More lines, now with the values ahead:

binding [1] | binding [2] | Substance
binds | binds | HSP70 1A (from UniProt Q61696 1-641)
binds | binds | CREB-binding protein (from UniProt P45481 1-2441)
binds | binds | PRMT3 (protein arginine methyl transferase 3) (from UniProt Q922H1 1-528) (enzyme)
binds | binds | DDEF2 (from UniProt Q7SIG6 1-958)
binds | binds | PRMT1 (protein arginine methyl transferase 1) (from UniProt Q9JIF0 1-371) (enzyme)
binds | binds | HSP70 1B (from UniProt P17879 1-642)

— PMC2712759, “Hsp70 Chaperones and Type I PRMTs Are Sequestered at Intranuclear Inclusions Caused by Polyalanine Expansions in PABPN1” (PLoS ONE, 2009)
